About 310 (0.13%) of roughly 230,000 compounds were called active. The shares of active, inactive and inconclusive entries below differ from those in the screen. The call rests on the fitted dose curve; in most records, active means well fitted activation curve with a large enough effect; inconclusive means small, poorly fitted or top-dose-only effect; inactive means no such curve, though single readings can be large or run the other way. Potencies of inconclusive entries are doubtful fits and often do not repeat.
assay: qHTS Multiplex Assay to Identify Dual Action Probes in a Cell Model of Huntington: Cytoprotection (ATP); conditions: PC12 HTT-Q103 induced, ATP luminescence, 40 h; cytoprotection (ATP increase): at 56.4 µM (top of the series) unless noted;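 on cytoprotection (ATP increase): toxic huntingtin expression switched on by the ecdysone agonist tebufenozide; % of control where 0% means no effect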
Excerpt: NIH Chemical Genomics Center [NCGC]
NIH Molecular Libraries Probe Production centers Network [MLPCN]
Assay Submitter (PI): Wei Zheng
Huntington's disease is a neurodegenerative disorder caused by a trinucleotide repeat expansion in Exon 1 of the Huntingtin gene. The CAG trinucleotide encodes glutamine and polyglutamine expansions cause cell death in selective areas of the brain. Huntington polyglutamine repeats have the tendency to form aggregates which are observable in later stages of the disease. The exact nature of the aggregates, whether toxic, protective, or insignificant, is unclear.
A stable PC12 cell line containing a gene fusion of Exon 1 of the Huntingtin gene linked to GFP under the control of the inducible ecdysone promoter were used as the cell-based model of Huntington Disease for high throughput screening. Exon 1 of the Huntingtin gene contained an expansion of 103 polyglutamines (Q103) which, when expressed, caused cell death and distinct, bright GFP aggregates. The amount of cell death and the size and intensity of GFP aggregates increased over time and induction level. The cell death were quantified with a measurement of ATP content in the cells. A maximal 40-50% of cell death was observed when the Huntington gene was induced in this cell line.
We optimized this assay in a homogeneous 1536 well format. A quantitative high throughput screen (qHTS) was conducted on the PC12 cells which were induced to express the toxic fusion construct. Small molecules which prevented cell death were identified by using a luminescent ATP quantification method (Perkin Elmer's ATPlite).
PC12 cells stably containing a construct with an ecdysone inducible promoter expressing GFP fused to the exon 1 of HTTQ103 (Huntington protein which containing a 103 ployglutamine expansion) were used.
NCGC Assay Protocol Summary:
Sequence, Parameter, Description
1, Reagent, 5 uL 1500 cells/well 1536 TC treated White clear bottom plate
2, Compound, 23 nL Tebufenozide inducer (100 nM final) to all columns
3, Compound, 23 nL 40 uM to 0.5 nM Libraries
5, Reagent, 5 ul ATPLite cell death assay reagent
6, Detector, 4 sec integration with a Viewlux Luminescent
Media consisted of phenol red free DMEM + 5% equine serum (Hyclone # SH30072.03 ), 5% supplemented Bovine Calf Serum (Hyclone # SH30074.03 ), 1x pen/strep, no G418
Control columns: 1 = DMSO, 2= 2 uM teb dilns (1:1), 4 = 100 nM Teb inducer. Sample columns received 100 nM Teb.
Potency means the concentration at half of the fitted maximal effect.

Row | SMILES | Potency | cytoprotection (ATP increase)
1 | CC(C)NC(=O)N1CC2(CCN(C(=O)c3cccn3C)CC2)C1 | inconclusive: 15800 nM [activator, partial curve, poor fit] | –
2 | CNC(=O)CSCCn1c(SCC(=O)NC)nc2ccccc2c1=O | inconclusive: 5010 nM [activator, single point] | –
3 | O=c1c(-c2ccc(Cl)cc2)nc2cnc(Nc3ccccc3)nc2n1C[C@H]1CCCO1 | inconclusive: 794 nM [activator, full curve] | –
4 | O=C(c1cn(-c2ccccc2)nc1-c1ccc(F)cc1)N1CCOCC1 | – | inactive: -6.76%
5 | COc1ccccc1CNC(=O)c1ccc2c(=O)n(CCCN3CCCC3=O)c(=S)[nH]c2c1 | – | inactive: -38.1%
6 | CCN(Cc1ccccc1)C(=O)c1ccc(SC)cc1OC | inconclusive: 3980 nM [activator, single point] | –
7 | CC(=O)NC1[C@H](O)C[C@@](O)(C(=O)O)O[C@H]1[C@H](O)[C@H](O)CO (stereo partly specified) | inconclusive: 100 nM [activator, full curve, poor fit] | –
8 | COc1ccc(/C=C/C(=O)CC(=O)/C=C/c2cccc(O)c2OC)cc1O | inconclusive: 22400 nM [activator, single point] | –
9 | O=C(COc1ccccc1)N/N=C/c1ccc2c(c1)OCO2 | – | inactive: -25.8%
10 | Cc1onc(-c2c(F)cccc2Cl)c1C(=O)N1C=CC(C(F)(F)Cl)=NCC1 | inconclusive: 708 nM [activator, full curve, poor fit] | –
11 | COc1ccc(NC(=O)CCCn2c(=O)c3sccc3n(Cc3cccc(C)c3)c2=O)cc1 | – | inactive: 0.462% [at 10 µM]
12 | C=CCNC(=S)N(Cc1ccccc1)Cc1ccccc1 | inconclusive: 5 nM [activator, full curve, poor fit] | –
13 | CC(C)CC(=O)Nc1ccc(Oc2ccc(NC(=O)CC(C)C)cc2)cc1 | inconclusive: 5620 nM [activator, single point] | –
14 | Cc1nn(Cc2ccccc2)c2c1C(c1ccc(Cl)cc1)C(C#N)=C(N)O2 (stereo unspecified) | – | inactive: 4.57% [at 10 µM]
15 | NS(=O)(=O)c1ccc(CNC(=O)CC23CC4CC(CC(C4)C2)C3)cc1 | inconclusive: 100 nM [activator, partial curve, poor fit] | –
16 | COC(=O)C1=C(C)N(Cc2ccccc2)C(=O)N[C@H]1c1cccc(F)c1 | inconclusive: 39.8 nM [activator, partial curve, poor fit] | –
17 | O=c1cc(-c2ccc(O)c(O)c2)oc2cc(O)cc(O)c12 | inconclusive: 1580 nM [activator, single point] | –
18 | O=C(CN(Cc1ccc(Cl)c(Cl)c1)S(=O)(=O)c1ccccc1)N/N=C\c1ccc2c(c1)OCO2 | – | inactive: -68.3%
19 | COCCN1C(=O)N[C@@H](CCc2ccccc2)[C@@H](C(=O)OC)[C@H]1C | inconclusive: 112 nM [activator, single point] | –
20 | Cn1c(CS(=O)Cc2c(Cl)cccc2Cl)nnc1SCc1c(Cl)cccc1Cl (stereo unspecified) | – | inactive: 0.0524% [at 10 µM]
21 | Cc1ccc(O)c(NC(=O)CSc2ccc(Cl)cc2)c1 | inconclusive: 100 nM [activator, full curve, poor fit] | –
22 | COc1ccc(OC)c(-c2c(C#N)c(N)nc3c2c(=O)nc2sccn23)c1 | – | inactive: -2.23%

Row | SMILES | Potency | cytoprotection (ATP increase)
23 | CN1CCc2cccc3c2[C@H]1Cc1ccc(O)c(O)c1-3 | inconclusive: 10000 nM [activator, partial curve, poor fit] | –
24 | O=C(O)C1(C(=O)O)CCN(S(=O)(=O)c2ccccc2)CC1 | – | inactive: -0.405% [at 10 µM]
25 | Nc1nc(N2CCN(C(c3ccccc3)c3ccccc3)CC2)n[nH]1 | inconclusive: 28200 nM [activator, single point] | –
26 | CNC(=O)CC1C(=O)N(c2ccc(Cl)cc2)C(=S)N1CCc1ccc(OC)c(OC)c1 (stereo unspecified) | inconclusive: 35500 nM [activator, single point] | –
27 | O=C(COC(=O)c1cc(-c2cccc(Br)c2)nc2ccccc12)NCC1CCCO1 (stereo unspecified) | – | inactive: -75.8%
28 | COc1ccccc1C1/C(=C(\O)c2ccc3c(c2)OCCO3)C(=O)C(=O)N1CCCN(C)C (stereo unspecified) | inconclusive: 3160 nM [activator, single point] | –
29 | Cc1nnc(SCC(=O)c2ccc(C(C)C)cc2)s1 | – | inactive: 5.76% [at 10 µM]
30 | CCN(CC)Cc1c(O)c(Cl)cc2c3c(c(=O)oc12)CCCC3 | – | inactive: -15.4%
31 | O=C(COC(=O)c1ccc(O)cc1)Nc1ccc(Cl)cc1 | – | inactive: -23.6%
32 | CC[n+]1ccccc1/C=C/c1ccc(N(C)C)cc1 | – | inactive: -79.4%
33 | CCOC(=O)CS(=O)(=O)c1nc(-c2ccccc2)cc(C(F)(F)F)n1 | inconclusive: 39800 nM [activator, single point] | –
34 | CC(C)[C@H](NC(=O)c1cccc(S(=O)(=O)N2CCCC2)c1)c1nc2ccccc2[nH]1 | inconclusive: 447 nM [activator, single point] | –
35 | COc1ccc(C2C(C(C)=O)=C(O)C(=O)N2CCN(C)C)cc1OC (stereo unspecified) | – | inactive: 14.5%
36 | Cc1nc(-c2ccc([N+](=O)[O-])cc2)sc1C(=O)O | inconclusive: 5620 nM [activator, single point] | –
37 | O=C(NC(=S)Nc1ccc(NC(=O)c2ccco2)cc1)c1ccccc1 | – | inactive: -10.7% [at 10 µM]
38 | O=C(O)[C@@H]1[C@@H]2C[C@H]3c4[nH]c5ccccc5c4CCN3C[C@@H]2CC[C@@H]1O | inconclusive: 56.2 nM [activator, full curve, poor fit] | –
39 | Nc1ccc([N+](=O)[O-])c(N)c1 | inconclusive: 31600 nM [activator, single point] | –
40 | COc1cc2c(cc1OC)[C@H](C)N(CC1C(=O)O[C@@H]3C[C@@]4(C)CCC[C@H](C)[C@@]45OC5[C@H]13)CC2 (stereo partly specified) | active: 8910 nM | –
41 | COc1ccc(-c2csc(NC(=O)c3ccccc3NS(=O)(=O)c3ccc(F)c(F)c3)n2)cc1 | – | inactive: -66.1% [at 10 µM]
42 | Clc1ccc(-c2nnc3n2CCCCC3)cc1 | inconclusive: 891 nM [activator, single point] | –
43 | O=c1cnc2cnc(Oc3cccc(Cl)c3)nc2n1C1CC1 | inconclusive: 12600 nM [activator, partial curve] | –
44 | Cc1ccc(CNn2cnnc2SCc2ccc(F)cc2)cc1 | inconclusive: 282 nM [activator, partial curve] | –

Arranged by number of heavy atoms (largest number first): some entries from above.
Row | SMILES | Potency | cytoprotection (ATP increase)
38 | O=C(O)[C@@H]1[C@@H]2C[C@H]3c4[nH]c5ccccc5c4CCN3C[C@@H]2CC[C@@H]1O | inconclusive: 56.2 nM [activator, full curve, poor fit] | –
24 | O=C(O)C1(C(=O)O)CCN(S(=O)(=O)c2ccccc2)CC1 | – | inactive: -0.405% [at 10 µM]
36 | Cc1nc(-c2ccc([N+](=O)[O-])cc2)sc1C(=O)O | inconclusive: 5620 nM [activator, single point] | –

Continuation:

Row | SMILES | Potency | cytoprotection (ATP increase)
45 | NC[C@@H]1O[C@@H](O[C@H]2[C@H](O)[C@@H](O[C@@H]3O[C@@H](CO)[C@H](O)[C@@H](N)[C@@H]3O)[C@H](N)C[C@@H]2N)[C@@H](O)[C@H](O)[C@H]1O | inconclusive: 1000 nM [activator, full curve, poor fit] | –
46 | CCc1nnc(NS(=O)(=O)c2ccc(N)cc2)s1 | inconclusive: 100 nM [activator, full curve, poor fit] | –
47 | CCNc1ncc2nc(-c3cn(C)c4ccccc34)c(=O)n(C[C@H]3CCCO3)c2n1 | inconclusive: 39800 nM [activator, single point] | –
48 | CCOc1ccc(NC(=O)CC2C(=O)N(c3ccccc3)C(=O)N2Cc2ccco2)cc1 (stereo unspecified) | – | inactive: -72.3%
49 | Cc1ccc(C(=O)Nc2ccc(Oc3cccc(C(F)(F)F)c3)nc2)cc1 | inconclusive: 891 nM [activator, single point] | –
50 | O=C(C1CCCO1)N1CCN(C(=S)Nc2ccc(Cl)c(Cl)c2)CC1 (stereo unspecified) | inconclusive: 5620 nM [activator, single point] | –
51 | Cc1cc(C)c(OCC(=O)Nc2nc(-c3ccccn3)cs2)c(C)c1 | – | inactive: -82.6%
52 | CSc1ccc(S(=O)(=O)NCc2ccccc2C)cc1 | inconclusive: 1260 nM [activator, single point] | –
53 | COC(=O)c1cn(NC(=O)c2cnccn2)c(=O)c2ccccc12 | – | inactive: -43.7%
54 | CCCN(CCC)C(=O)SCC | inconclusive: 39800 nM [activator, single point] | –
55 | O=C(CN1C(=O)S/C(=C\C=C\c2ccccc2)C1=O)Nc1ccc(O)cc1 | – | inactive: -2.39% [at 10 µM]
56 | CNC(=O)COC(=O)c1ccc(Cl)c(S(=O)(=O)N2CCCC2)c1 | active: 2820 nM | –
57 | Cc1nc2c(o1)CCc1ccccc1C2N1CCN(C)CC1 (stereo unspecified) | inconclusive: 1120 nM [activator, partial curve] | –
58 | CN1CCN(C2=Nc3cc(Cl)ccc3Nc3ccccc32)CC1 | inconclusive: 15.8 nM [activator, full curve, poor fit] | –
59 | Cn1c(N)c(C(=O)COC(=O)c2cc(-c3ccco3)nc3ccccc23)c(=O)n(Cc2ccccc2)c1=O | active: 10000 nM | –
60 | COC(=O)/C(=C\Nc1ccccc1N)c1ncc(C(F)(F)F)cc1Cl | inconclusive: 12600 nM [activator, partial curve] | –
61 | COc1ccc(N(C(=O)c2ccc(Br)o2)C2C=CS(=O)(=O)C2)c(OC)c1 (stereo unspecified) | inconclusive: 3980 nM [activator, single point] | –
62 | CCOc1ccc(-c2cc(C(=O)OC)nc3c2c(=O)n(C)c(=O)n3C)cc1 | inconclusive: 708 nM [activator, single point] | –
63 | O/N=C1\CCCCc2ccccc21 | inconclusive: 1260 nM [activator, full curve, poor fit] | –
64 | COc1ccc(-c2nc3cnc(OCc4ccccc4)nc3n(CCC#N)c2=O)cc1 | inconclusive: 6310 nM [activator, partial curve, poor fit] | –
65 | COC(c1ccccc1)(c1ccccc1)C(Oc1nc(C)cc(C)n1)C(=O)O (stereo unspecified) | inconclusive: 28200 nM [activator, partial curve, poor fit] | –
66 | CCCCCC(CC(=O)O)C(=O)O (stereo unspecified) | inconclusive: 631 nM [activator, single point] | –
